Experimental data as given in the supplement of paper PMC4604168 (melanoma cell lines).
Some of the results follow. Repeats are few or missing, and single values can be far off.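 The apoptosis fraction was the count of cleaved-PARP antibody-stained nuclei relative to all DNA-stained nuclei, imaged in 1,536-well plates. Screening doses were set so most cells survived, and baseline and induced cleaved-PARP levels vary greatly across cell lines.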

Key:
Experiment in all cases: cleaved PARP positive nuclei fraction relative to DMSO control; melanoma cells; higher = more apoptosis
Conditions in all cases: library dose: low library concentration; 72 h
501Mel = system: 501Mel
A101D = system: A101D
A2058 = system: A2058
A375 = system: A375
C32 = system: C32
CBRC008 = system: CBRC008 (line from a melanoma biopsy)
CBRC014 = system: CBRC014 (line from a melanoma biopsy)
CBRC016 = system: CBRC016 (line from a melanoma biopsy)
CBRC017 = system: CBRC017 (line from a melanoma biopsy)
CBRC034 = system: CBRC034 (line from a melanoma biopsy)
COLO792 = system: COLO792
COLO800 = system: COLO800
COLO829 = system: COLO829
G361 = system: G361
IPC-298 = system: IPC-298
IST-MEL1 = system: IST-MEL1
LB2518-MEL = system: LB2518-MEL
LOXIMVI = system: LOXIMVI
MEL-HO = system: MEL-HO

SMILES | cleaved PARP positive nuclei fraction (501Mel) [%] | cleaved PARP positive nuclei fraction (A101D) [%] | cleaved PARP positive nuclei fraction (A2058) [%] | cleaved PARP positive nuclei fraction (A375) [%] | cleaved PARP positive nuclei fraction (C32) [%] | cleaved PARP positive nuclei fraction (CBRC008) [%] | cleaved PARP positive nuclei fraction (CBRC014) [%] | cleaved PARP positive nuclei fraction (CBRC016) [%] | cleaved PARP positive nuclei fraction (CBRC017) [%] | cleaved PARP positive nuclei fraction (CBRC034) [%] | cleaved PARP positive nuclei fraction (COLO792) [%] | cleaved PARP positive nuclei fraction (COLO800) [%] | cleaved PARP positive nuclei fraction (COLO829) [%] | cleaved PARP positive nuclei fraction (G361) [%] | cleaved PARP positive nuclei fraction (IPC-298) [%] | cleaved PARP positive nuclei fraction (IST-MEL1) [%] | cleaved PARP positive nuclei fraction (LB2518-MEL) [%] | cleaved PARP positive nuclei fraction (LOXIMVI) [%] | cleaved PARP positive nuclei fraction (MEL-HO) [%]
Cc1ccc(Nc2nccc(N(C)c3ccc4c(C)n(C)nc4c3)n2)cc1S(N)(=O)=O [Pazopanib] + Nc1ncn([C@H]2C[C@H](O)[C@@H](CO)O2)c(=O)n1 [decitabine] (first compound 0.4 µM, partner dose 0.1 µM) | 96.6 | 91.9 | 206 | 235 | 92.6 | 112 | 197 | 91.4 | 81.2 | 52 | 64.5 | 117 | 89.8 | 93.3 | 61.3 | 94.6 | 230 | 70.2 | 217
Cc1cc(Nc2cc(N3CCN(C)CC3)nc(Sc3ccc(NC(=O)C4CC4)cc3)n2)n[nH]1 [Tozasertib] + COc1ccc(Cl)c(Nc2nc3ccccc3nc2NS(=O)(=O)c2cccc(NC(=O)C(C)(C)N)c2)c1 [XL147] (first compound 0.006 µM, partner dose 0.8 µM) | 90.6 | 91.8 | 134 | 71.7 | 192 | 163 | 123 | 77.8 | 115 | 75 | 53.2 | 165 | 210 | 74.6 | 90.7 | 91.9 | 142 | 159 | 112
CC[C@]1(O)C[C@H]2CN(CCc3c([nH]c4ccccc34)[C@@](C(=O)OC)(c3cc4c(cc3OC)N(C=O)[C@H]3[C@@](O)(C(=O)OC)[C@H](OC(C)=O)[C@]5(CC)C=CCN6CC[C@]43[C@@H]65)C2)C1 [vincristine] + CN1CCN(c2ccc3nc(-c4c(N)c5c(F)cccc5[nH]c4=O)[nH]c3c2)CC1 [Dovitinib] (first compound 0.0001 µM, partner dose 0.1 µM) | 98.8 | 253 | 518 | 286 | 269 | 68.3 | 89.8 | 111 | 108 | 79.8 | 140 | 90.1 | 122 | 113 | 86.9 | 120 | 68 | 164 | 42.5
COc1cc([C@@H]2c3cc4c(cc3[C@@H](O[C@@H]3O[C@@H]5CO[C@@H](C)O[C@H]5[C@H](O)[C@H]3O)[C@H]3COC(=O)[C@H]23)OCO4)cc(OC)c1O [etoposide] + COc1ccc(Cl)c(Nc2nc3ccccc3nc2NS(=O)(=O)c2cccc(NC(=O)C(C)(C)N)c2)c1 [XL147] (first compound 0.02 µM, partner dose 0.8 µM) | 182 | 87.8 | 82 | 95.1 | 66.5 | 247 | 123 | 161 | 99.7 | 98.7 | 123 | 101 | 63.2 | 133 | 52.3 | 73.2 | 64.1 | 176 | 40.2
COc1cc([C@@H]2c3cc4c(cc3[C@@H](O[C@@H]3O[C@@H]5CO[C@@H](C)O[C@H]5[C@H](O)[C@H]3O)[C@H]3COC(=O)[C@H]23)OCO4)cc(OC)c1O [etoposide] + CO[C@H]1C[C@@H]2CC[C@@H](C)[C@@](O)(O2)C(=O)C(=O)N2CCCC[C@H]2C(=O)O[C@H]([C@H](C)C[C@@H]2CC[C@@H](OCCO)[C@H](OC)C2)CC(=O)[C@H](C)/C=C(\C)[C@@H](O)[C@@H](OC)C(=O)[C@H](C)C[C@H](C)/C=C/C=C/C=C/1C [everolimus] (first compound 0.02 µM, partner dose 0.02 µM) | 549 | 109 | 48.9 | 601 | 87.6 | 234 | 105 | 65.7 | 113 | 71.2 | 177 | 17.7 | 163 | 57.7 | 126 | 224 | 144 | 85.5 | 99.8
O=C(/C=C/c1cccnc1)NCCCCC1CCN(C(=O)c2ccccc2)CC1 + CN(c1ncccc1CNc1nc(Nc2ccc3c(c2)CC(=O)N3)ncc1C(F)(F)F)S(C)(=O)=O [PF562271] (first compound 0.01 µM, partner dose 0.08 µM) | 160 | 200 | 87.1 | 161 | 78.6 | 3390 | 120 | 1010 | 1110 | 2310 | 428 | 370 | 293 | 4850 | 138 | 104 | 134 | 207 | 692
Cc1cn(-c2cc(NC(=O)c3ccc(C)c(Nc4nccc(-c5cccnc5)n4)c3)cc(C(F)(F)F)c2)cn1 [nilotinib] + NC(=O)c1ccc(N(C(N)=O)c2c(F)cccc2F)nc1-c1ccc(F)cc1F [VX702] (first compound 0.2 µM, partner dose 0.4 µM) | 83.4 | 48.2 | 53.7 | 178 | 72.6 | 32.1 | 101 | 42.1 | 115 | 73.9 | 221 | 100 | 78 | 108 | 43.1 | 126 | 86.2 | 143 | 220
O=c1[nH]nc(Sc2ncc([N+](=O)[O-])s2)n1-c1ccc2c(c1)OCCO2 + Nc1ccn([C@@H]2O[C@H](CO)[C@@H](O)C2(F)F)c(=O)n1 [gemcitabine] (first compound 0.2 µM, partner dose 0.0004 µM) | 74.5 | 43.1 | 192 | 155 | 83 | 86.2 | 125 | 384 | 280 | 77.9 | 195 | 147 | 169 | 98.4 | 186 | 166 | 60.6 | 32.8 | 88.7
O=C(Nc1cc(C(F)(F)F)cc(C(F)(F)F)c1)c1cc(Cl)ccc1O + C[C@@H](Oc1cc(-c2cnn(C3CCNCC3)c2)cnc1N)c1c(Cl)ccc(F)c1Cl [Crizotinib] (first compound 0.016 µM, partner dose 0.2 µM) | 61.7 | 40.6 | 114 | 53.4 | 79.3 | 192 | 94.9 | 78 | 77.5 | 35.3 | 55.7 | 24.1 | 106 | 84.3 | 39.9 | 119 | 49 | 60.2 | 56.7

Whole records as entered above. Values in the order: cleaved PARP positive nuclei fraction (501Mel) [%]	cleaved PARP positive nuclei fraction (A101D) [%]	cleaved PARP positive nuclei fraction (A2058) [%]	cleaved PARP positive nuclei fraction (A375) [%]	cleaved PARP positive nuclei fraction (C32) [%]	cleaved PARP positive nuclei fraction (CBRC008) [%]	cleaved PARP positive nuclei fraction (CBRC014) [%]	cleaved PARP positive nuclei fraction (CBRC016) [%]	cleaved PARP positive nuclei fraction (CBRC017) [%]	cleaved PARP positive nuclei fraction (CBRC034) [%]	cleaved PARP positive nuclei fraction (COLO792) [%]	cleaved PARP positive nuclei fraction (COLO800) [%]	cleaved PARP positive nuclei fraction (COLO829) [%]	cleaved PARP positive nuclei fraction (G361) [%]	cleaved PARP positive nuclei fraction (IPC-298) [%]	cleaved PARP positive nuclei fraction (IST-MEL1) [%]	cleaved PARP positive nuclei fraction (LB2518-MEL) [%]	cleaved PARP positive nuclei fraction (LOXIMVI) [%]	cleaved PARP positive nuclei fraction (MEL-HO) [%]
Cc1cc(Nc2cc(N3CCN(C)CC3)nc(Sc3ccc(NC(=O)C4CC4)cc3)n2)n[nH]1 [Tozasertib] + COc1ccc(Cl)c(Nc2nc3ccccc3nc2NS(=O)(=O)c2cccc(NC(=O)C(C)(C)N)c2)c1 [XL147] (first compound 0.006 µM, partner dose 0.8 µM) is listed as 90.6	91.8	134	71.7	192	163	123	77.8	115	75	53.2	165	210	74.6	90.7	91.9	142	159	112
CC[C@]1(O)C[C@H]2CN(CCc3c([nH]c4ccccc34)[C@@](C(=O)OC)(c3cc4c(cc3OC)N(C=O)[C@H]3[C@@](O)(C(=O)OC)[C@H](OC(C)=O)[C@]5(CC)C=CCN6CC[C@]43[C@@H]65)C2)C1 [vincristine] + CN1CCN(c2ccc3nc(-c4c(N)c5c(F)cccc5[nH]c4=O)[nH]c3c2)CC1 [Dovitinib] (first compound 0.0001 µM, partner dose 0.1 µM) is listed as 98.8	253	518	286	269	68.3	89.8	111	108	79.8	140	90.1	122	113	86.9	120	68	164	42.5
